Test results taken from EP0314866A2, “Novel alkylated hormonereleasing peptides and method of treating mammals therewith” (The Administrators of The Tulane University Educational Fund, priority 1987, dated 1989).
Part of at least one peptide drawing is inferred or uncertain, most often the ends. Where a SMILES comes first, the peptide text is derived from it. [ ]: non-standard residue; d: D form.

Test system: plasma growth hormone
Experiment: Evaluation of peptides in vivo in sheep: plasma GH after IV injection of GRF analogs
Parameters: species or system wether lambs
Conditions: lambs injected intravenously at 100 ng/kg; for Plasma GH (ng/ml) Post-inj Mean: two hours after treatment, means of 8 samples/animal from 8 animals
Description: The purpose of this experiment is to compare the GH releasing activities of several GRF analogs selected for expected high potency and the lack of either a terminal amide or a D-amino acid. The analogs to be compared in wether lambs at 100 ng/kg (IV) are tri-isopropyl-GRF(1-29)-NH₂, tri-isopropyl-GRF(1-29)-OH, tri-isopropyl-GRF(1-40)OH, D-ala², arg^12,21-GRF (1-29)-OH, D-ala², arg^12,21-GRF(1-29)-NH₂, GRF(1-40)-OH and GRF(1-29)-NH₂
A balanced 8 x 8 Latin square design will be used to test the following 8 treatments:
The diet used in these evaluations is a standard sheep diet (pelleted) and fresh water ad libitum. All animals are fed one daily.
The animals are individually identified by numbered ear tags and held in numbered metabolism cages.
Sheep are maintained in individual metabolism cages at all times. Each sheep has previously received an indwelling jugular cannula which is flushed daily with heparinized (400-800 IU/ml) sterile saline to help maintain patency.
All compounds are solubilized at 5 ug/ml in sterile saline containing 1% Tween 80 and injected intravenously at 100 ng/kg. Control lambs receive equal volumes of the vehicle only. The drugs are prepared each day just prior to injection to minimize sticking to the vials.
Blood is collected in heparinized tubes at 15 minute intervals for one hours prior to and for two hours after the treatments are administered. Plasma samples are removed by centrifugation and frozen.
Body weights of each animal is taken at the start of the experiment and once during treatment.
Blood samples are taken from each animal at 15 minute intervals for 3 hours each day during the 8 day trial period. The samples are analyzed for plasma growth hormone (ng/ml). Data obtained are reported below as near values obtained for each treatment.

Row | Compound | Plasma GH (ng/ml) Peak [ng/mL] | Plasma GH (ng/ml) Post-inj Mean [ng/mL]
1 | CC[C@H](C)[C@H](NC(=O)[C@H](C)NC(=O)[C@H](CC(=O)O)NC(=O)[C@H](C)NC(=O)[C@@H](N)Cc1ccc(O)cc1)C(=O)N[C@@H](Cc1ccccc1)C(=O)N[C@H](C(=O)N[C@@H](CC(N)=O)C(=O)N[C@@H](CO)C(=O)N[C@@H](Cc1ccc(O)cc1)C(=O)N[C@@H](CCCNC(=N)N)C(=O)N[C@@H](CCCCN)C(=O)N[C@H](C(=O)N[C@@H](CC(C)C)C(=O)NCC(=O)N[C@@H](CCC(N)=O)C(=O)N[C@@H](CC(C)C)C(=O)N[C@@H](CO)C(=O)N[C@@H](C)C(=O)N[C@@H](CCCNC(=N)N)C(=O)N[C@@H](CCCCN)C(=O)N[C@@H](CC(C)C)C(=O)N[C@@H](CC(C)C)C(=O)N[C@@H](CCC(N)=O)C(=O)N[C@@H](CC(=O)O)C(=O)N[C@H](C(=O)N[C@@H](CCSC)C(=O)N[C@@H](CO)C(=O)N[C@@H](CCCNC(=N)N)C(N)=O)[C@@H](C)CC)C(C)C)[C@@H](C)O [GRF(1-29)-NH₂] | 23.2 | 11.3
2 | CC[C@H](C)[C@H](NC(=O)[C@H](C)NC(=O)[C@H](CC(=O)O)NC(=O)[C@H](C)NC(=O)[C@H](Cc1ccc(O)cc1)NC(C)C)C(=O)N[C@@H](Cc1ccccc1)C(=O)N[C@H](C(=O)N[C@@H](CC(N)=O)C(=O)N[C@@H](CO)C(=O)N[C@@H](Cc1ccc(O)cc1)C(=O)N[C@@H](CCCNC(=N)N)C(=O)N[C@@H](CCCCNC(C)C)C(=O)N[C@H](C(=O)N[C@@H](CC(C)C)C(=O)NCC(=O)N[C@@H](CCC(N)=O)C(=O)N[C@@H](CC(C)C)C(=O)N[C@@H](CO)C(=O)N[C@@H](C)C(=O)N[C@@H](CCCNC(=N)N)C(=O)N[C@@H](CCCCNC(C)C)C(=O)N[C@@H](CC(C)C)C(=O)N[C@@H](CC(C)C)C(=O)N[C@@H](CCC(N)=O)C(=O)N[C@@H](CC(=O)O)C(=O)N[C@H](C(=O)N[C@@H](CCSC)C(=O)N[C@@H](CO)C(=O)N[C@@H](CCCNC(=N)N)C(=O)O)[C@@H](C)CC)C(C)C)[C@@H](C)O [tri-isopropyl-GRF(1-29)-OH, [N^α-isopropyl-Tyr¹,N ^ε-isopropyl-Lys^12,21]GRF (1-29)OH] | 53.1 | 17.2
3 | CC[C@H](C)[C@H](NC(=O)[C@H](C)NC(=O)[C@H](CC(=O)O)NC(=O)[C@@H](C)NC(=O)[C@@H](N)Cc1ccc(O)cc1)C(=O)N[C@@H](Cc1ccccc1)C(=O)N[C@H](C(=O)N[C@@H](CC(N)=O)C(=O)N[C@@H](CO)C(=O)N[C@@H](Cc1ccc(O)cc1)C(=O)N[C@@H](CCCNC(=N)N)C(=O)N[C@@H](CCCNC(=N)N)C(=O)N[C@H](C(=O)N[C@@H](CC(C)C)C(=O)NCC(=O)N[C@@H](CCC(N)=O)C(=O)N[C@@H](CC(C)C)C(=O)N[C@@H](CO)C(=O)N[C@@H](C)C(=O)N[C@@H](CCCNC(=N)N)C(=O)N[C@@H](CCCNC(=N)N)C(=O)N[C@@H](CC(C)C)C(=O)N[C@@H](CC(C)C)C(=O)N[C@@H](CCC(N)=O)C(=O)N[C@@H](CC(=O)O)C(=O)N[C@H](C(=O)N[C@@H](CCSC)C(=O)N[C@@H](CO)C(=O)N[C@@H](CCCNC(=N)N)C(N)=O)[C@@H](C)CC)C(C)C)[C@@H](C)O [D-ala²,arg^12,21-GRF(1-29)-NH₂, D-ala², arg^12,21-GRF(1-29)-NH₂] (H-Y[dA]DAIFTNSYRRVLGQLSARRLLQDIMSR-NH2) | 62.8 | 19.1
4 | CC[C@H](C)[C@H](NC(=O)[C@H](C)NC(=O)[C@H](CC(=O)O)NC(=O)[C@@H](C)NC(=O)[C@@H](N)Cc1ccc(O)cc1)C(=O)N[C@@H](Cc1ccccc1)C(=O)N[C@H](C(=O)N[C@@H](CC(N)=O)C(=O)N[C@@H](CO)C(=O)N[C@@H](Cc1ccc(O)cc1)C(=O)N[C@@H](CCCNC(=N)N)C(=O)N[C@@H](CCCNC(=N)N)C(=O)N[C@H](C(=O)N[C@@H](CC(C)C)C(=O)NCC(=O)N[C@@H](CCC(N)=O)C(=O)N[C@@H](CC(C)C)C(=O)N[C@@H](CO)C(=O)N[C@@H](C)C(=O)N[C@@H](CCCNC(=N)N)C(=O)N[C@@H](CCCNC(=N)N)C(=O)N[C@@H](CC(C)C)C(=O)N[C@@H](CC(C)C)C(=O)N[C@@H](CCC(N)=O)C(=O)N[C@@H](CC(=O)O)C(=O)N[C@H](C(=O)N[C@@H](CCSC)C(=O)N[C@@H](CO)C(=O)N[C@@H](CCCNC(=N)N)C(=O)O)[C@@H](C)CC)C(C)C)[C@@H](C)O [D-ala²,arg^12,21-GRF(1-29)-OH, D-ala², arg^12,21-GRF(1-29)-OH] (H-Y[dA]DAIFTNSYRRVLGQLSARRLLQDIMSR-OH) | 65.0 | 19.4
5 | CC[C@H](C)[C@H](NC(=O)[C@H](C)NC(=O)[C@H](CC(=O)O)NC(=O)[C@H](C)NC(=O)[C@H](Cc1ccc(O)cc1)NC(C)C)C(=O)N[C@@H](Cc1ccccc1)C(=O)N[C@H](C(=O)N[C@@H](CC(N)=O)C(=O)N[C@@H](CO)C(=O)N[C@@H](Cc1ccc(O)cc1)C(=O)N[C@@H](CCCNC(=N)N)C(=O)N[C@@H](CCCCNC(C)C)C(=O)N[C@H](C(=O)N[C@@H](CC(C)C)C(=O)NCC(=O)N[C@@H](CCC(N)=O)C(=O)N[C@@H](CC(C)C)C(=O)N[C@@H](CO)C(=O)N[C@@H](C)C(=O)N[C@@H](CCCNC(=N)N)C(=O)N[C@@H](CCCCNC(C)C)C(=O)N[C@@H](CC(C)C)C(=O)N[C@@H](CC(C)C)C(=O)N[C@@H](CCC(N)=O)C(=O)N[C@@H](CC(=O)O)C(=O)N[C@H](C(=O)N[C@@H](CCSC)C(=O)N[C@@H](CO)C(=O)N[C@@H](CCCNC(=N)N)C(N)=O)[C@@H](C)CC)C(C)C)[C@@H](C)O [tri-isopropyl-GRF(1-29)-NH₂] | 71.9 | 22.0
